From paper PMC8931120

What was measured:
BSA = BSA (UniProt P02769); test: EMSA; settings: 1 mM Mg2+, 2 uM probe; EMSA: 40 mM Tris pH 8.0, 30 mM KCl, 1 mM MgCl2, 0.01% NP-40, 1 mM DTT, 30 C 1 h
[1] = target: LC3B-WT (mature, cleaved by ATG4B) (human) (UniProt Q9GZQ8); test: fluorescence polarization; settings: 1 mM Mg2+, FP: same buffer without NP-40, 100 nM RNA final (200 nM stock diluted 1:2), protein 3.4-880 uM, temperature not stated, recombinant protein, residues 1-120, protein details: MBP fusion cleaved off by human ATG4B
[2] = target: LC3B-WT (mature, cleaved by ATG4B) (human) (UniProt Q9GZQ8); test: EMSA; settings: 1 mM Mg2+, 2 uM probe; EMSA: 40 mM Tris pH 8.0, 30 mM KCl, 1 mM MgCl2, 0.01% NP-40, 1 mM DTT, 30 C 1 h; recombinant protein; residues 1-120; protein details: MBP fusion cleaved off by human ATG4B

AAUAAAAAUAAAAAUAAA [Cy5-AAUAAAx3]
binding result (BSA): no binding

ACGCCAAAAAAA [Cy5-ACGCCAAAAAAA]
binding result ([1]; Kd or nd only in figure): binds more weakly

AAAAAAAAAAAAAAAAAA [Cy5-AAAAAAx3]
binding result [2]: binds more weakly

ACGCCAAUAAAA [Cy5-ACGCCAAUAAAA]
binding result ([1]; Kd printed only in figure): binds

For some of these results: No signal at the amounts used counts as a negative. For some of these results: The exact form of at least one protein or probe is not confirmed. For some of these results: Weaker means in comparison with the reference protein, sequence or condition of that experiment. For some of these results: At least one verdict was read from the data and is not stated in words by the source.
